Broadly, the AC50 is the concentration giving half of the maximal activity seen. A low value points to activity at low concentration.

The experiment can be described thus: qHTS Assay for Lipid Storage Modulators in Drosophila S3 Cells.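 On cell number change: cells counted by Cell Tracker Red CMTPX staining in the red channel.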 The conditions noted are these: BODIPY lipid droplet fluorescence, 18-24 h; for cell number change: measured here: cell count max response, cells fed with added oleic acid. In short, it runs like this:
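Drosophila S3 cells got compounds at several concentrations plus oleic acid (400 uM solution). Laser-scanning cytometry with 488 nm excitation read lipid droplets at 500-530 nm and cells at 575-640 nm. Percent activity was relative to 20 uM Triacsin C.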
For orientation: Quantitative high-throughput screening tests each substance at several concentrations.

The mark [1] stands for this setting: measured here: cell number channel AC50, cells fed with added oleic acid.
Setting [2] is: measured here: lipid fluorescence (Fed channel) AC50, cells fed with added oleic acid.

This is one part of the list. The main result of the screen is listed elsewhere. These columns were measured beside it and carry no call. Most of these compounds were active or inconclusive in the main read-out, so they are no random draw. The note in brackets gives the kind of curve behind each potency; many fits are weak.

In the case of `CCOC(=O)c1cc(-c2ccc([N+](=O)[O-])cc2)nc2c1c(=O)[nH]c(=O)n2Cc1ccccc1`, the cell number change is -30.3%. For the same compound, under setting [1], the AC50 is 18.4 µM [falling, single point].
Turning to `O=[N+]([O-])c1ccc(/C=N/NC(=S)Nc2ccccc2)o1`, the cell number change is -23.6%. The AC50 under setting [2] was 11.6 µM [falling, partial curve].
In the case of `CC(C)c1ccc(/C=C2\CC/C(=C\C=N\N(C)C)C2=O)cc1`, the cell number change turned out to be 440%. The AC50 under setting [1] was 29.1 µM [rising, single point]. The AC50 under setting [2] is 29.1 µM [rising, single point].
Consider `O=C1CCCN1CCCNc1nc2c(S(=O)(=O)c3ccc(Br)cc3)nnn2c2ccccc12`, for which the cell number change is -22.4%. Further, the AC50 under setting [2] was 3.26 µM [falling, full curve].
With `O=C1CC(c2cccc(Cl)c2)C(n2cncn2)C(=O)C1C1NCCc2ccccc21` (centres undefined), the cell number change is -8.02%.
On to `CCC1CCCCN1c1nc(-c2ccncc2)nc2ccccc12` (centres undefined), for which the cell number change came out at 14.9%. Further, the AC50 under setting [2] was 5.17 µM [rising, single point].
In the case of `CSc1nc2sc3c(c2c2nnnn12)CCC3`, the cell number change is 3.63%. In addition, the AC50 under setting [2] is 7.31 µM [rising, partial curve].
With `CN(C)c1ccc(/C=N/n2c(-c3ccccc3Br)n[nH]c2=S)cc1`, the cell number change stood at 17.3%. For the same compound, the AC50 under setting [2] is 29.1 µM [rising, single point].
With `O=C(COC(=O)CCC1CCCC1)Nc1cc(S(=O)(=O)N2CCOCC2)ccc1Cl`, the cell number change is -26.1%.
In the case of `COc1cccc(NC(=O)C2CCN(S(C)(=O)=O)CC2)c1`, the cell number change is -3.17%. In addition, under setting [2], the AC50 is 4.11 µM [falling, full curve].
In the case of `Cc1ccc(C(=O)N2CCN(c3ncccn3)CC2)cc1`, the cell number change is 22.5%.
On to `COCC(=O)NNS(=O)(=O)c1ccccc1[N+](=O)[O-]`, for which the cell number change is -13.9%. Besides, the AC50 under setting [2] is 3.26 µM [falling, partial curve, poor fit].
As for `COc1cc2c(cc1OC)CN(Cc1cccs1)CC2`, the cell number change is 29.9%.
In the case of `CCOc1ccc(NC(=O)NCC2CCN(c3ccc(OC)cc3)C2)cc1` (centres undefined), the cell number change is -1.45%. The half-maximal activity concentration (AC50) under setting [2] was 1.64 µM [falling, partial curve, poor fit].
For the compound `Cc1ccc2oc(-c3ccc(C)c(NC(=S)NC(=O)c4cccs4)c3)nc2c1`, the cell number change was -26.3%. The AC50 under setting [2] was 14.6 µM [falling, single point].
Regarding `CCN(CC(=O)Nc1ccc(NC(C)=O)cc1)Cc1c(O)ccc2cc(Br)ccc12`, the cell number change stood at 14.9%.
The same measure, in the same setting: next, `O=C(COc1ccc(Cl)cc1Cl)N/N=C/c1ccccn1`: -16.5%.
The same measure, in the same setting: in the case of `CC(=O)Nc1ccc(NC(=O)c2cccc3ccccc23)cc1` it was 12.2%.
With `COc1ccc(N/C=C2\CCc3ccccc3C2=O)cc1`, the cell number change is -21.2%. For the same compound, the AC50 under setting [2] is 0.00517 µM [falling, full curve, poor fit].
Take `CCN(CCO)C(=S)Nc1cc(S(=O)(=O)N(C)C)ccc1C`: the cell number change is -58.6%. The AC50 under setting [1] is 0.184 µM [falling, full curve, poor fit]. Besides, the AC50 under setting [2] is 0.58 µM [rising, single point].
For the compound `Cn1c(=O)c2cc(S(=O)(=O)NC(C(=O)N3CCCCCC3)c3ccccc3)ccc2n(C)c1=O` (centres undefined), the cell number change is -22.7%. The AC50 under setting [2] is 16.4 µM [falling, single point].
Turning to `O=C(NC1CCN(Cc2ccccc2)CC1)c1ccc(S(=O)(=O)NCc2ccco2)cc1`, the AC50 under setting [1] is 0.00461 µM [rising, full curve, poor fit].
For `COc1ccc([C@H]2CC(=O)C=C(c3ccc(C(=O)O)cc3)C2)cc1OC`, the cell number change was -10.3%. The AC50 under setting [1] was 0.00517 µM [falling, full curve, poor fit]. For the same compound, the AC50 under setting [2] was 0.00461 µM [falling, full curve, poor fit].
`Cc1ccc(N2CCN(CC(O)COc3cccc4ccccc34)CC2)cc1` (centres undefined): the cell number change was -29.6%. Under setting [1], the AC50 was 0.651 µM [falling, full curve, poor fit]. The AC50 under setting [2] was 16.4 µM [falling, single point].
In the case of `O=C(NCCN1CCCCCC1)c1ccc(N2CCCC2=O)cc1`, the cell number change was -10.2%. For the same compound, the AC50 under setting [1] is 1.16 µM [falling, full curve, poor fit]. For the same compound, under setting [2], the half-maximal activity concentration (AC50) was 1.46 µM [falling, partial curve].
Regarding `COCCCN1CCN(C2Cc3ccccc3Sc3ccc(Cl)cc32)CC1` (centres undefined), the cell number change is -23.9%. In addition, the AC50 under setting [1] is 0.092 µM [rising, full curve, poor fit].
Regarding `COc1ccc(CCn2nnnc2C(c2ccccc2)N2CCN(C)CC2)cc1OC` (centres undefined), the cell number change was -15.1%. Under setting [1], the AC50 was 3.66 µM [falling, single point]. Further, under setting [2], the AC50 was 4.61 µM [falling, single point].
As for `CCC(c1nnnn1CCOC)N1CCN(C(=O)c2ccco2)CC1` (centres undefined), the cell number change is -3.52%. Under setting [2], the concentration at half-maximal activity (AC50) was 0.00461 µM [falling, full curve, poor fit].
`O=C(Nc1ccc(F)c([N+](=O)[O-])c1)c1cccs1`: the cell number change was -18.7%. Also, the AC50 under setting [2] was 1.16 µM [falling, full curve].
Consider `Cc1ccc(-c2csc(NC(=O)CCCc3cccs3)n2)cc1`, for which the cell number change stood at 23.8%. The AC50 under setting [2] is 16.4 µM [rising, partial curve, poor fit].
On to `COc1ccccc1N1CCN(S(=O)(=O)c2ccc(-c3cnc(C4CC4)o3)cc2)CC1`, for which the AC50 under setting [2] was 14.6 µM [falling, partial curve, poor fit].
On to `Cc1occc1-c1nnc(SCC(=O)N2CCCCC2)n1C`, for which the cell number change was -12.9%.
With `CCOC(=O)Oc1ccc2c(=O)c(Oc3cccc(C)c3)coc2c1`, the cell number change is -19%. The AC50 under setting [2] is 1.64 µM [falling, full curve, poor fit].
As for `CCOCCCNC(=O)C1(O)c2ccccc2NC(=O)N1c1ccc(C)c(C)c1` (centres undefined), the cell number change came out at 30.4%. Moreover, under setting [1], the AC50 is 1.3 µM [rising, partial curve, poor fit].
`O=C(COC(=O)c1cccnc1)Nc1cccc(Cl)c1`: the cell number change is -21.7%. The AC50 under setting [1] was 1.16 µM [falling, single point]. The concentration at half-maximal activity (AC50) under setting [2] was 1.16 µM [falling, full curve].
`O=C(NCC(c1ccco1)N1CCc2ccccc2C1)c1cccc([N+](=O)[O-])c1` (centres undefined): the cell number change stood at 33%. In addition, the AC50 under setting [1] was 9.2 µM [rising, partial curve]. Besides, the concentration at half-maximal activity (AC50) under setting [2] was 13 µM [rising, partial curve].
Consider `O=C(CN1C(=O)c2ccccc2C1=O)NCc1ccccn1`, for which the cell number change was -6.18%. The half-maximal activity concentration (AC50) under setting [2] is 0.00461 µM [falling, full curve, poor fit].
Turning to `C=CCOC(=O)C1=C(C)NC(C)=C(C(=O)OCC=C)C1c1ccc(O)cc1`, the cell number change was -24.5%. The AC50 under setting [2] is 29.1 µM [falling, single point].

(Values after PubChem BioAssay AID2685 (National Center for Advancing Translational Sciences (NCATS), 2010).)
